These results are taken from PMC3636440.

Results are given in words; binding and its absence hold for the method and conditions named. Some results given as binding are weak or reduced against the parent protein; the word gives no strength. Where a sequence is shown, tags or fusion partners need not be part of it.

For assay [1], the target named is T1, GAL4-BD fusion of the glutamic acid (GA)-rich region of Stra8 (Stra8^GA) (mouse) (UniProt P70278).
T1 sequence: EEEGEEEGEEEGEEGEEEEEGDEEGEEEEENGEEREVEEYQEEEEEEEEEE
In words: two-hybrid; GAL4-based library screen: mouse maGSC cDNA library (pGADT7-Rec, AH109) mated with Y187 carrying pGBKT7-Stra8^GA; selection on SD/-Leu/-Trp/-His/-Ade and X-alpha-Gal; auto-activating clones excluded by direct-Y2H.

The target in assay [2] is T1, GAL4-BD fusion of the glutamic acid (GA)-rich region of Stra8 (Stra8^GA) (mouse). In words: two-hybrid; direct-Y2H: purified prey clone co-transformed with bait construct or empty pGBKT7 into AH109; SD/-Leu/-Trp, then SD/-Leu/-Trp/-His/-Ade and X-alpha-Gal plates.

B1: AT-rich interactive domain 4B (Arid4B), C-terminal region prey clone (domain or fragment, UniProt A2CG63-1 1119-1314)
chain: KRVKDTQGVGSSSKKQKRSHKATVVNNKKKGKGTNSSDSEELSAGESVTKTQTIKSVPTGMKTHNSKSPARVQSPGKGGRNGDKDPDLKEPSNRLPKVYKWSFQTSDLENMTSAERISILQEKLQEIRKHYLSLKSEVASIDRRRKRLKKKERESAATSSSSSSPSSSSITAAVMLTLAEPSMSSASQNGMSVECR
Turning to B1, the binding entry in assay [1] and in assay [2] was “binds” throughout.
